From PubChem BioAssay AID270 (DTP/NCI, 2004)
The list is a part of this screen's results and no random one: it covers a few groups of compounds. Not every dose and run of a compound is shown. T/C gives the treated animals as a percentage of the vehicle group. Some doses have a count of surviving animals in place of a T/C: the source holds a T/C of zero for them, seemingly a mark for toxic or unscored doses. Some survivor counts are full or nearly so, which does not show that the dose was tolerated: the source hardly ever lists a survival T/C far under the control, and the zero likely stands for such cases as well. Counts of survivors are from the toxicity check (mostly the fifth day) where no day follows; animals may have died later. Schedules are NCI's codes, read here as Q, the interval in days (D) or hours (H), X, the number of doses. For survival time, this PubChem deposit counts one and a half times the control or more as active, and values a quarter to a half above the control carry no call in these data; other NCI protocols may use other cut-offs. Some T/C values carry the count of animals alive at the toxicity check (mostly the fifth day); without a count or a note in brackets, all were alive then.

System: BDF1 mice, s.c. Lewis lung carcinoma, T/C %
Assay: NCI In Vivo Anticancer Drug Screen. Data for tumor model Lewis Lung Carcinoma (subcutaneous) in B6D2F1 (BDF1) mice
Settings: T/C endpoint: median survival time, schedule: Q01DX009 (ip), higher T/C = longer survival
In short: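 Readout: survival or tumor size, expressed as treated (T) over vehicle control (C). Transplantable tumor implanted in mice; compound given to the treated group.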

Structure (SMILES) | T/C (dose: 12.5 mg/kg/injection, vehicle: saline) | T/C (dose: 25.0 mg/kg/injection, vehicle: saline) | T/C (dose: 50.0 mg/kg/injection, vehicle: saline) | survivor count (dose: 100.0 mg/kg/injection, vehicle: saline) | T/C (dose: 0.5 mg/kg/injection, vehicle: saline with Tween-80) | T/C (dose: 1.0 mg/kg/injection, vehicle: saline with Tween-80) | survivor count (dose: 2.0 mg/kg/injection, vehicle: saline with Tween-80) | T/C (dose: 4.0 mg/kg/injection, vehicle: saline with Tween-80) | survivor count (dose: 8.0 mg/kg/injection, vehicle: saline with Tween-80) | survivor count (dose: 12.0 mg/kg/injection, vehicle: saline with Tween-80)
CCOC(=O)C(CCSC)NC(=O)OCCNCCCl (stereo not given) | 99 % of control | 102 % of control | 114 % of control [9 of 10 alive] | 8 of 10 |  |  |  |  |  | 
N#C/C(=C\c1ccc(N(CCBr)CCBr)cc1)C(N)=O |  |  |  |  | 90 % of control | 95 % of control | 10 of 10 | 87 % of control | 10 of 10 | 10 of 10
